Laboratory results taken from patent publication US20240287483.
Construct, isoform or probe ends are uncertain for at least one entry.

Tested on: Pol 37
Assay: binding assay
Details: purified recombinant protein

Row | Sequence | binding result (faster than Pol 75, label: Pacific Blue on 5'-terminal T of template, variant of (CT)10G primer/template) | binding result (FRET extension with labeled dNTPs, 2 mM MgCl2, 60 mM NaCl, 45 C)
1 | GTTCCTGTCCACCTCC / TCAGTCTCTCTCTCTCTCTCTCTCGGAGGTGGACAGGAAC [(CT)10G primer/template, Pacific Blue] | binds | 
2 | GTTCCTGTCCACCTCC / TCAGTCTCTCTCTCTCTCTCTCTCGGAGGTGGACAGGAAC [(CT)10G primer/template] |  | binds
